Our source for the AC50 values is PubChem BioAssay AID493014 (National Center for Advancing Translational Sciences (NCATS), 2011).

Some of the results follow. The main result of the screen is listed elsewhere. These columns were measured beside it and carry no call. Most of these compounds were active or inconclusive in the main read-out, so they are no random draw. The note in brackets gives the kind of curve behind each potency; many fits are weak.

A short description of this experiment: qHTS Assay to Find Inhibitors of Chronic Active B-Cell Receptor Signaling. Conditions: ABC-DLBCL IkBa-CBG/CBR reporter, luminescence ratio (green luciferase fused to IkBa over red control in TMD8 lymphoma cells), 4 h. Summed up:
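TMD8 human ABC-DLBCL cells with doxycycline-inducible IκBα–green luciferase fusion and unfused red luciferase, in 0.5% FBS medium; compounds up to 46 uM, 4 h at 37C. Green/red luminescence ratio, filter-overlap corrected, fitted to concentration-response curves.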
(Quantitative high-throughput screening tests each substance at several concentrations.)

Where [1] appears, read: measured here: CBR red luminescence, cell number.
Where [2] appears, read: measured here: IkBa-CBG green luminescence.

Turning to `COc1ccccc1N1CCN(Cc2cc(Br)c(O)c3ncccc23)CC1`, under setting [1], the AC50 – broadly, the midpoint of the concentration-response curve, whichever way the signal moves – is 6.51 µM [rising, single point].

Turning to `COc1ccccc1NC(=O)c1ccc(C(=O)c2ccccc2)o1`, the AC50 under setting [1] is 15.8 µM [falling, single point].

For the compound `COc1cccc(CNC(=O)c2ccc3c(c2)N(Cc2ccc(F)cc2Cl)C(=O)c2ccccc2S3)c1`, under setting [1], the AC50 was 22.4 µM [falling, partial curve, poor fit].

Take `CCOC(=O)[C@H]1[C@H]2COc3ccc(C)cc3[C@@H]2N2C(=O)c3cc(Br)ccc3NC(=O)[C@@]12C`: the AC50 under setting [1] is 29.1 µM [falling, single point].

Consider `COC(=O)c1ccc2c(=O)n(CCO)c(=S)[nH]c2c1`, for which the AC50 under setting [1] was 18.4 µM [falling, single point].

With `Cc1ccsc1/C=N/NC(=O)c1nnn(-c2nonc2N)c1CN(C)c1ccccc1`, the AC50 under setting [1] is 35.5 µM [falling, single point].

As for `CC(=O)c1cccc(NC(=O)N2CCCC2C(=O)Nc2cccc(C)c2)c1` (centres undefined), under setting [1], the AC50 was 35.5 µM [rising, single point].

In the case of `CCCOC(=O)C1=C(C)NC2=C(C(=O)CCC2)C1c1ccc(N(C)C)cc1` (centres undefined), under setting [1], the AC50 was 11.2 µM [rising, partial curve, poor fit].

For `COc1ccc(C(=O)N2C(=S)NC(=O)/C2=C\c2ccc(C)cc2)cc1`, the AC50 under setting [1] was 1.84 µM [rising, partial curve, poor fit].

Consider `CC(C)Oc1ccc(/C=C(/NC(=O)c2ccccc2)C(=O)NCCC(=O)O)cc1`, for which the AC50 under setting [1] is 35.5 µM [falling, partial curve, poor fit].

`N#CCCn1nc(-c2ccccc2)c2ccccc2c1=O`: the AC50 under setting [1] was 35.5 µM [rising, single point].

`CCOC(=O)c1ccc(NC(=O)CN(Cc2ccc(Cl)cc2)S(C)(=O)=O)cc1`: under setting [1], the AC50 is 6.51 µM [rising, single point].

`COCC(C)n1c(SCc2nc(N)nc(Nc3ccccc3C)n2)nc2ccccc2c1=O` (centres undefined): the AC50 under setting [1] was 13 µM [rising, partial curve, poor fit].

Take `CCCc1[nH]nc2c1C(c1ccc(OC)c(CSC3=NCCS3)c1)C(C#N)=C(N)O2` (centres undefined): under setting [1], the AC50 is 25.1 µM [falling, single point].

As for `O=C(C(c1ccccc1)c1ccccc1)N(Cc1ccco1)C1CCS(=O)(=O)C1` (centres undefined), the AC50 under setting [1] was 0.112 µM [rising, full curve, poor fit].

`CCc1cc(=O)oc2cc(OCC(=O)NCCN3CCOCC3)c(Cl)cc12`: under setting [1], the AC50 is 12.6 µM [rising, single point].

With `Cn1c(CCc2ccccc2)nnc1SCC(=O)N1CCCC1`, under setting [1], the AC50 is 4.11 µM [rising, single point].

Turning to `CCOC(=O)c1sc(NC(=O)CCN2CCCCCC2)c(C(=O)OCC)c1C`, the AC50 under setting [1] was 10 µM [falling, single point].

In the case of `Oc1ccc2ccccc2c1C=NCc1cn2ccsc2n1`, the AC50 under setting [1] is 35.5 µM [falling, single point].

`Cc1ccc(C(=O)Cc2cc3ccccc3oc2=O)c(C)c1`: the half-maximal activity concentration (AC50) under setting [1] was 35.5 µM [rising, single point].

On to `Cc1noc(/C=C/N(C)C)c1S(=O)(=O)N(C)Cc1ccc(F)cc1`, for which, under setting [1], the AC50 was 35.5 µM [falling, single point].

Turning to `COc1cc(/C=N/Nc2ccc(Cl)nn2)cc(OC)c1O`, under setting [1], the AC50 is 0.398 µM [rising, full curve, poor fit].

In the case of `Cc1ccccc1CCN(C(=O)c1csnn1)C(C(=O)NC1CCCC1)c1ccncc1` (centres undefined), under setting [1], the AC50 is 10 µM [falling, partial curve, poor fit].

As for `O=C(Nc1cc2c3c(c1)CC(=O)N3CCC2)c1ccccc1Br`, the AC50 under setting [1] is 13 µM [falling, partial curve, poor fit].

On to `O=[N+]([O-])c1cc2c(cc1CN1CCN(c3ccccc3F)CC1)OCO2`, for which the AC50 under setting [1] is 17.8 µM [rising, partial curve, poor fit].

With `O=C(COc1ccc(Cl)cc1)Nc1cccc(-c2ccc(N3CCOCC3)nn2)c1`, under setting [1], the AC50 is 13 µM [falling, partial curve, poor fit].

In the case of `Cc1nn(CC(O)COc2ccc3c(c2)CCC3)c(C)c1Br` (centres undefined), the AC50 under setting [1] is 35.5 µM [falling, single point].

Take `Cc1ccc(NC(=O)Cn2c(=O)n(CCCCC(=O)NCc3ccco3)c(=O)c3ccccc32)cc1`: the AC50 under setting [1] was 0.82 µM [falling, full curve, poor fit].

In the case of `O=C(Nc1cccc([N+](=O)[O-])c1)c1ccncc1`, the AC50 under setting [1] was 6.51 µM [rising, partial curve, poor fit].

Take `Cc1ccc(S(=O)(=O)CCC(=O)OCC(=O)NC2CCS(=O)(=O)C2)cc1` (centres undefined): the AC50 under setting [1] is 29.1 µM [rising, single point].

Regarding `COc1cc([N+](=O)[O-])ccc1NC(=O)COC(=O)CCOc1ccc(C)cc1`, the AC50 is, setting by setting: under setting [1], 6.51 µM [falling, partial curve]; under setting [2], 5.17 µM [rising, partial curve, poor fit].

As for `COc1ccc(CNC(=O)[C@@H](NC(=O)C2CCN(C(=O)[C@@H]3CCCN3C(=O)OC(C)(C)C)CC2)C(C)C)cc1`, the concentration at half-maximal activity (AC50) under setting [1] is 35.5 µM [rising, single point].

Regarding `O=C(c1cc(-c2ccc(Cl)cc2)on1)N1CCCCCC1`, under setting [1], the AC50 is 5.62 µM [falling, single point].

In the case of `COc1ccc(C(CNC(=O)c2cccc(S(=O)(=O)Nc3ccccc3OC)c2)N2CCCC2)cc1` (centres undefined), under setting [1], the AC50 is 29.1 µM [falling, partial curve, poor fit].

Take `CCCNC(=O)CCc1cc(C(C)(C)C)c(O)c(C(C)(C)C)c1`: the AC50 under setting [1] was 3.66 µM [rising, partial curve, poor fit].

On to `C/C(=N\NC(=O)c1ccccc1Br)c1ccc(N2CCOCC2)cc1`, for which, under setting [1], the AC50 is 7.08 µM [falling, partial curve, poor fit].

On to `COc1cccc(-c2nc3ccc([N+](=O)[O-])cc3o2)c1`, for which the AC50 under setting [1] is 3.98 µM [rising, partial curve, poor fit].

As for `CCOC(=O)c1ccc(NC(=O)CSc2nnc(-c3ccncc3)n2-c2ccccc2)cc1`, the AC50 under setting [1] was 10 µM [rising, partial curve].

For `COc1ccc(NC(=O)Nc2cc(C)cc(C)c2)cn1`, under setting [1], the AC50 is 0.0891 µM [rising, full curve, poor fit].

As for `O=C(NCc1ccccc1)C(Cc1ccccc1)N1C(=O)C2C3CCC(C3)C2C1=O` (centres undefined), the AC50 under setting [1] was 11.2 µM [falling, partial curve].

For the compound `CCn1ncc(CN2CCC(Oc3cc(C(=O)NC4CC4)ccc3OC)CC2)c1C`, the AC50 under setting [1] was 35.5 µM [rising, partial curve, poor fit].

On to `COC(=O)c1c(-c2cccs2)csc1NC(=O)c1cccnc1`, for which the AC50 under setting [1] was 7.94 µM [rising, partial curve, poor fit].

In the case of `CCN(CC)CCOC(=O)c1ccc(N/C=C(/C#N)c2nc(-c3cccc(OC)c3)cs2)cc1`, the AC50 runs as follows: under setting [1], 2 µM [rising, partial curve]; under setting [2], 8.91 µM [falling, partial curve, poor fit].

Take `N#Cc1ccccc1OCC(=O)Nc1cccc(S(=O)(=O)N2CCCCCC2)c1`: the concentration at half-maximal activity (AC50) under setting [1] was 4.61 µM [falling, partial curve, poor fit].

As to `CCOc1ccc(Cn2nnc(C(=O)Nc3ccc(OC)cc3OC)c2N)cc1`, the AC50 under setting [1] is 14.6 µM [rising, single point].

With `Cc1ccc(C)c(NC(=O)CCC(=O)NNC(=O)C(c2ccccc2)c2ccccc2)c1`, under setting [1], the AC50 is 8.91 µM [rising, partial curve].

Take `Cc1ccc(CSCC(=O)N2CCOCC2)cc1`: the AC50 under setting [1] is 20.6 µM [falling, partial curve, poor fit].

For the compound `O=S(=O)(c1ccc(F)cc1)N1CCN(CC(O)COc2ccccc2F)CC1` (centres undefined), the AC50 under setting [1] is 35.5 µM [falling, single point].

Regarding `CC(=O)N(Cc1ccc(Br)cc1)c1ccccc1C(=O)O`, the AC50 under setting [1] was 7.08 µM [rising, full curve, poor fit].

In the case of `COc1cccc(/C(O)=C2/C(=O)C(=O)N(c3cc(C)on3)C2c2cccs2)c1` (centres undefined), the AC50 under setting [1] is 0.0891 µM [falling, full curve, poor fit].

Turning to `O=C(NCCc1ccccn1)c1cc2ccccc2o1`, under setting [1], the AC50 was 4.47 µM [falling, partial curve, poor fit].

In the case of `O=C(Nc1ccc2ccccc2c1)c1cccc(F)c1`, the AC50 under setting [1] was 10 µM [falling, partial curve].

As to `CC1(C)C(=O)N(c2ccccc2)C1c1ccccc1O` (centres undefined), the AC50 reads like this: under setting [1], 25.1 µM [rising, partial curve]; under setting [2], 25.1 µM [falling, single point].

Consider `CCOc1ccc(CCNC(=O)C2CCCN(C(=O)N(C)C)C2)cc1OCC` (centres undefined), for which the AC50 under setting [1] is 14.6 µM [rising, partial curve, poor fit].

For `CCN1C(=S)N[C@@H](c2ccccc2)C(C(=O)OC)=C1C`, the AC50 under setting [1] is 14.1 µM [falling, single point].

As to `O=S(=O)(Nc1ccccn1)c1cc(Cl)ccc1Cl`, the AC50 under setting [1] was 5.62 µM [rising, partial curve, poor fit].

For `O=C(NC(=S)NCCc1ccccn1)c1ccccc1`, the AC50 under setting [1] is 12.6 µM [falling, partial curve, poor fit].

For `COc1ccccc1N1CCN(C(=O)c2ccc3c(=O)n(Cc4ccco4)c(=S)[nH]c3c2)CC1`, the AC50 under setting [1] is 5.01 µM [falling, full curve].

Consider `C(=N/N1CCN(c2ccccc2)CC1)/c1ccncc1`, for which, under setting [1], the AC50 is 1.12 µM [rising, full curve].

As for `CCN(CC)S(=O)(=O)c1cccc(-c2nnc(SCc3nnc(-c4cccs4)o3)n2N)c1`, under setting [1], the AC50 is 35.5 µM [falling, single point].

As to `CCOc1ccc(C2C3=C(CCCC3=O)Nc3ccc4ncccc4c32)cc1` (centres undefined), under setting [1], the concentration at half-maximal activity (AC50) was 0.355 µM [rising, full curve, poor fit].
